A negative result means that nothing was seen under these conditions. Tags and fusion partners may be left off the protein sequences shown.
Biological target: T1, RIG-I (DDX58), full-length (Homo sapiens) (UniProt O95786)
T1 sequence (looked up): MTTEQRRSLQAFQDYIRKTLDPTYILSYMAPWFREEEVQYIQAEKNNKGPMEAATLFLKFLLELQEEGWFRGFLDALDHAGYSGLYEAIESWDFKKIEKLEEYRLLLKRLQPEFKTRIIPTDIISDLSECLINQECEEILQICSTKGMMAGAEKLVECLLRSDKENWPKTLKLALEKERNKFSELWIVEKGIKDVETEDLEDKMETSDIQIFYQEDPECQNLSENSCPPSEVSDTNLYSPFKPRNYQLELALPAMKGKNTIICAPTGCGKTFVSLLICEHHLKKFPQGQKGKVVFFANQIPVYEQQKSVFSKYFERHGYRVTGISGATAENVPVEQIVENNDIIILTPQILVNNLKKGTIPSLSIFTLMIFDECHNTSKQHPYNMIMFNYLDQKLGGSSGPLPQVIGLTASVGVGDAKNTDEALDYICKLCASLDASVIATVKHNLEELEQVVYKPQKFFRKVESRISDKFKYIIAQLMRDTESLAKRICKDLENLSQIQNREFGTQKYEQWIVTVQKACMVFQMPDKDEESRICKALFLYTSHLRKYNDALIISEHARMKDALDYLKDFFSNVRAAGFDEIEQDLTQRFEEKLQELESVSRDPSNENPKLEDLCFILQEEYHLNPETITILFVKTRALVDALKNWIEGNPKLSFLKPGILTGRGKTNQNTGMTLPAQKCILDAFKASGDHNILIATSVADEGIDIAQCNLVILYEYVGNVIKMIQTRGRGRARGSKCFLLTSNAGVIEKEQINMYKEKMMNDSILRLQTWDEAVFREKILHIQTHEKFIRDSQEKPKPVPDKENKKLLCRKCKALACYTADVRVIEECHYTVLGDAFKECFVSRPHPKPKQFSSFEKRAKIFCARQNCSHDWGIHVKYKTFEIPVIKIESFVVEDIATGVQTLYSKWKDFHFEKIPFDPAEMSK
Test: activity in cells
Conditions: IFN-beta luciferase reporter in HEK293, protein in cells

“GCAUGCGACCUCUGUUUGA / UCAAACAGAGGUCGCAUGC [5'-triphosphate dsRNA 19-mer positive control]” was tested, and the functional effect (5'-triphosphate on top strand, positive control) was “active”.
“GCAUGCGACCUCUGUUUGA / UCAAACAGAGGUCGCAUGC [unphosphorylated dsRNA 19-mer negative control]” was tested, and the functional effect (negative control) was “not active”.
